The values below come from article PMC11977240.

By UniProt entry, the sequences of proteins in these tests, tags left out. Where a name states a change or a piece, a line headed by the entry shows the natural chain unless it says otherwise.
UniProt Q00839: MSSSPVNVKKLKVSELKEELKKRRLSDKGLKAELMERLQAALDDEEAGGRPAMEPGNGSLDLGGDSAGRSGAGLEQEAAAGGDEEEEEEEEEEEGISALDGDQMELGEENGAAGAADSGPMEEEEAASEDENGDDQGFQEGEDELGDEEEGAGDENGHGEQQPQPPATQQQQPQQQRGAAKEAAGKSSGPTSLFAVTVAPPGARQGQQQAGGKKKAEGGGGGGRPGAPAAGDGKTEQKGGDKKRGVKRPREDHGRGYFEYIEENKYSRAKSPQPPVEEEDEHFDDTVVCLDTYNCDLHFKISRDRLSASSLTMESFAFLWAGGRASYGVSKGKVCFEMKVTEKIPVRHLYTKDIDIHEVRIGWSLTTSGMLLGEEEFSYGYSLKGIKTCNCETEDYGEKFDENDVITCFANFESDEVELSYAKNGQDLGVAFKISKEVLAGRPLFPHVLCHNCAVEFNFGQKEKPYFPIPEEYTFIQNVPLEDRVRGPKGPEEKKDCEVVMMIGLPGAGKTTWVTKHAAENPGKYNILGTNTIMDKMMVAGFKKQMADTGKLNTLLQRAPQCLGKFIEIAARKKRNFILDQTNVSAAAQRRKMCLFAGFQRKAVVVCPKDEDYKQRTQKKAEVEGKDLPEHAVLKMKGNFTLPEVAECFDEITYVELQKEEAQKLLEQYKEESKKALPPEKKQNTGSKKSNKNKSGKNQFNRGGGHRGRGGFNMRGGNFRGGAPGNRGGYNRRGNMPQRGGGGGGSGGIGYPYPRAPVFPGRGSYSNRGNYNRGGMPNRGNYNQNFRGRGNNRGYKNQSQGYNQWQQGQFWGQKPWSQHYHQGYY
UniProt O00571: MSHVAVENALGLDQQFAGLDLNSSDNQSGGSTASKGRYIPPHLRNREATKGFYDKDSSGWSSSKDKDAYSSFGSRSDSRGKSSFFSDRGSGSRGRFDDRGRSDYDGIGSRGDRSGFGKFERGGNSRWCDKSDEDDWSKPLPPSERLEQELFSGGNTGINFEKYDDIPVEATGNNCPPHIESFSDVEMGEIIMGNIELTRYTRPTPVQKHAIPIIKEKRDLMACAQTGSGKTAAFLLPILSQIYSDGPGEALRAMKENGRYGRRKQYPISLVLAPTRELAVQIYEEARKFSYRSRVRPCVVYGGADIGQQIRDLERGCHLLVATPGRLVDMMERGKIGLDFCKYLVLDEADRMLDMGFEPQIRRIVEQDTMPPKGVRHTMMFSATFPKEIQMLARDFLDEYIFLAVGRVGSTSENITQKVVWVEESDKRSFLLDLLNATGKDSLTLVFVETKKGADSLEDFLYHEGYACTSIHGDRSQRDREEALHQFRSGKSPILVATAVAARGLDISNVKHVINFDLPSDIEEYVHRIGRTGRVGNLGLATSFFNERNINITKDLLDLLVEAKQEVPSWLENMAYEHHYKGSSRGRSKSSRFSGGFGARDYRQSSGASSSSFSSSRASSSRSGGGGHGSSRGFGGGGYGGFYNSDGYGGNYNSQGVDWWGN

The target of the experiment is hnRNP U ΔRBD-Flag (UniProt Q00839). Briefly: co-IP; IP with the Flag antibody from cytoplasmic extracts of HCT116 cells transfected with flag-tagged hnRNP U WT, ΔRBD or empty vector, western blot. On the technique in general: In western blotting, separated proteins are transferred to a membrane and probed.

No constants are given. Whether binding was seen depends on the method and setting. In cells and extracts the contact can be indirect. Binding can be weak; no strength is given.

For DDX3X (from UniProt O00571 1-662), the binding entry was “binds”.
